Reference: patent publication EP1013664A1, “Antigenic determinants for drug-specific T lymphocytes from drug-allergic patients” (Max-Planck-Gesellschaft zur Förderung der Wissenschaften …, priority 1998, dated 2000)
For some of these results: Not every detail of the peptide structures is certain; ends, links or a residue may be inferred. For some of these results: For at least one compound, name, drawing or mass did not settle the structure. Ends that are not written are not given here.

How the values were obtained:
Type in all cases: cell-based, human
[1] = system: PBMC from donors allergic to β-lactams; assay: Flow cytometric analysis of intracellular IFNγ and IL4 production in Pen G-stimulated PBMC cultures; conditions: in vitro stimulation with different doses of Pen G
Method: Cells at a concentration of 3 x 10^5/w were stimulated with 3-fold dilutions of Pen G from 3 mg/ml to 0.1 µg/ml. After 5 days incubation at 37°C in 5% CO2, the proliferative response was determined, in one of the plates, as the ^3H-thymidine incorporation after 16 h incubation with […] = 37 kBq ^3H-thymidine (Dupont, Boston, MA). Cells were harvested on GF/A-filters (Dunn Labortechnik GmbH, Asbach, Germany) and the incorporation was measured in an automatic β-counter (Inotech, Asbach, Germany). The second plate was further expanded in IL2-containing medium for 4 days. Cells were then pooled for any given Pen G concentration, washed and rested in the absence of IL2. After another 4 days, cells were harvested and analysed for TCR expression by cell surface staining and IL4/IFNγ production by intracellular staining.
Intracellular staining for cytokines was performed following the protocol described by Murphy et al. (12), with few modifications. […] Samples were resuspended in PBS/BSA and analyzed on a FACScan flow cytometer (Becton Dickinson & Co.). […] Results were analyzed using Cellquest software. T cells were detected by standard surface staining using the PE-conjugated anti human TCRαβ antibody (Clone BMA03, Immunotech, Marseille, France). […]

[2] = system: Pen G-specific T cell clones; assay: Proliferation and IL4/IFNγ secretion of a panel of T cell clones at different Pen G doses; conditions: for SI values of proliferation: clones from donor two
Method: T cell clones were generated from Pen G specific T cell lines. Freshly isolated PBMC were stimulated with 1, 0.3, 0.1 mg/ml of Pen G at a density of 2 x 10^5 cells/well in a final volume of 200 µl of complete RPMI containing 5 % HS in 96-well flat bottom culture plates. After 5 days at 37°C and 5 % CO2, 25 U/ml of IL2 was added to the wells. After another 4 days the cultures were pooled, rested for 3 days in the absence of IL2 and subjected to a second round of restimulation using irradiated autologous PBMC as APC and the same dose of Pen G given during the first restimulation. After 3 days the different cultures were again expanded in IL2 containing medium and then cloned by limiting dilution. T cell blasts were seeded at 0.3 cells/well in Terasaki plates (Nunc, Roskilde, Denmark) in the presence of 1 µg/ml PHA and 10^4 irradiated allogeneic PBMC in complete RPMI medium containing 5 % HS and 250 U/ml IL-2. The T cell clones obtained were maintained in culture by periodic stimulation in the presence of irradiated allogeneic PBMC, PHA and IL2.
For cytokine measurement, 10^5 T cells and 5 x 10^4 autologous, irradiated EBV-B cells were mixed in 200 µl of complete RPMI-FCS medium containing appropriate Ag concentration. After overnight incubation, supernatants were collected and tested for the concentration of IL2, IFNγ and IL4. IL2 was quantified on a IL2-dependent CTLL line. IFNγ was measured by a sandwich ELISA as described (12). IL-4 was measured using the Duo-Set ELISA kit provided by Genzyme Diagnostics, Cambridge, MA. Eventually, cells were kept in culture for another 24 h and cellular proliferation was measured by thymidine uptake as described above.
In order to evaluate the role of Pen G doses in inducing functional differentiation of established T lymphocytes, a panel of independent Pen G-specific T cell clones was prepared. […] After 24 h incubation, supernatants were harvested and processed for cytokine measurement, while cells were kept in culture for another 24 h and T cell proliferation was measured by thymidine uptake. […]

[3] = system: tetanus toxoid-specific T cell clone 1ES4

CC1(C)S[C@@H]2[C@H](NC(=O)Cc3ccccc3)C(=O)N2[C@H]1C(=O)O [Pen G, Penicillin G]
hapten doses of maximal expansion of IL4-producing peripheral blood-derived T cells [1]: 1-0.1
SI of proliferation ([2]; clones from donor one, at lowest doses triggering proliferation): ≤ 8.6
SI values of proliferation ([2]; 0.03 mg/ml): up to 86.5
SI values of proliferation ([2]; highest dose of hapten 3 mg/ml): up to 122.7

VRDIIDDFTNESSQK [TT 616-630, VRDIIDDFTNESSQK]
IFNγ (100 % value) [3]: 7497 pg/mL
IL2 (100 % value) [3]: 137.4 SI of CTLL cells
T cell phenotype upon stimulation [3]: classical Th1 phenotype
